Drawing on paper PMC7272049, this text covers binding for one substance.

Protein sequences, listed by entry. Tags and fused reporters are not part of them. Lines headed by an entry give the natural chain unless they say otherwise; changes in a name come on top.
UniProt Q9EP73: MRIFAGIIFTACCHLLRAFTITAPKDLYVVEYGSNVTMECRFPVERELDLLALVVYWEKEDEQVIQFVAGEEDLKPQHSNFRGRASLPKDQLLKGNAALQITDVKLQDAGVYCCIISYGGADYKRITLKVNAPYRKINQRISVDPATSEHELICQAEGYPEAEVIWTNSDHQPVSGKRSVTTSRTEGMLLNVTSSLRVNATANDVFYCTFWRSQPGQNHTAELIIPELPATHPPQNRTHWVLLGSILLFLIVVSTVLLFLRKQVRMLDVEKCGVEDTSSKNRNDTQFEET

The target of the assay is T1, murine CD200 mCherry fusion (mouse) (UniProt O54901).
T1 sequence: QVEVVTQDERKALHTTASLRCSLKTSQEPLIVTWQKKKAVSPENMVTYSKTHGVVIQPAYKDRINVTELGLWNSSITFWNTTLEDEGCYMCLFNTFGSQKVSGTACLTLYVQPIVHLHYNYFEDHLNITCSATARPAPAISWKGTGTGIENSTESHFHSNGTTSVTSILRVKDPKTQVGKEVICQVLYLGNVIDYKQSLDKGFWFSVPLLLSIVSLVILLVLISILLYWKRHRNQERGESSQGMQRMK
The assay can be described thus: cell microarray; live cells on slides expressing mCherry fusions in alternating rows; Fc-fusion (~100 nM) pre-incubated with labelled secondary antibody (~200 nM); RT 30 min, 1x PBS 0.2% BSA; only the binder purified.

These are yes or no findings as the source states them, for the method shown. Tags and fused reporters may be left off the sequences shown.

For the substance “mPD-L1 hIgG1 (from UniProt Q9EP73 19-239) (Fc fusion)”, the binding entry is given as “no binding (tested: ~100nM)”.
